# Screening data, single-dose tests

The values are deposited in ChEMBL (CHEMBL3988442, “University of Dundee, Small-Polar-MMV Screening Library” (2021)).

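Growth of Mycobacterium tuberculosis over 4 days (cholesterol / DPPC medium with tyloxapol); the read-out is not stated. Concentration: 500 µM. The record gives no direction; compounds that gave an IC50 in retests scored well above the rest, so higher reads as more growth inhibition. Size under these conditions: about 18,000 compounds, about 900 of them at 50% or above in at least one test.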

Values are the deposited “Percent Effect”, in %.
The record does not define 0% and 100%; most values in the screen are far below 50% and negative numbers occur (in some assays of this library far below -100).
This is an unselected part of the compounds tested.

Compound,percent effect
NCc1cc2c([nH]c1=O)CCC2,-27.31%
CNS(=O)(=O)C1CCCN(c2ncc(Br)cc2C)C1 (centres undefined),-3.24%
O=C(Cc1nc(-c2cccnc2)no1)NCC(F)(F)F,0.5211%
CC(C)CNc1cc(CN(C)C)ccn1,9.28%
Cc1ncsc1C(=O)N1CCOC(C)C1 (centres undefined),-16.53%
CN(C)C(=O)c1occc1Br,-5.043%
COc1ccc(C(=O)N2C[C@@H](CO)[C@H](N(C)C)C2)cn1,-1.628%
Cn1ncc2c(N3CCCC3)nc(NCCO)nc21,-4.461%
CCNCC(O)COc1ccc(C)cc1OC (centres undefined),18.57%
Cn1nnnc1SCCNCc1ccc(Br)cc1,73.91%
CCc1n[nH]c(NC(=O)c2cc(C(C)=O)cs2)n1,3.574%
CN(C)CCNC(=O)c1cccs1,6.845%
CC(C)(N)C(O)c1ccc(Br)cc1 (centres undefined),59.54%
N#Cc1ccc(C(=O)NCC2CCCO2)cc1 (centres undefined),26.34%
O=c1ccc(-c2noc(C3CCCC3)n2)c[nH]1,-1.633%
NC1CCCN(c2ccccc2)C1 (centres undefined),37.77%
CC(C(=O)NCc1ccnc(N(C)C)c1)S(C)(=O)=O (centres undefined),7.259%
NCc1ccc(C(=O)NCCCc2ncc[nH]2)cc1,10.8%
COc1ccc(C(=O)N[C@@H]2CCOC[C@H]2O)cn1,0.5364%
Cc1ccc([C@@H](C)O)cc1,1.219%
NC(=O)c1ncsc1Cl,-3.754%
COc1cccc(CNc2nc(C(C)C)nn2C)n1,28.02%
Cn1ncc(N[C@@H]2C=C[C@H](CO)C2)c(Cl)c1=O,12.76%
CS(=O)(=O)c1ccc(-c2cnc(N)cn2)cc1,6.533%
CCC(=O)NC1CCNC1 (centres undefined),-11.74%
CC1CCCN(c2cc(CNS(C)(=O)=O)ccn2)C1 (centres undefined),64.88%
COc1cccc(OC(F)(F)F)c1CN,14.79%
COc1cccc2c1N(CC(=O)N1CCC1)CCC2,45.76%
N#Cc1ccc(S(=O)(=O)NCC[C@H]2CCCN2)c(Cl)c1,-8.8%
CCNS(=O)(=O)CCNC(=O)Cc1cc(F)ccc1F,-10.08%
CNC(=O)CN(C)C(=O)C(C)(C)C,-8.78%
O=S1(=O)CCN(c2ccnc3ccccc23)CC1,-14.68%
CSCCC(CO)NC(=O)c1occc1C(C)C (centres undefined),63.62%
NCCc1ccoc1,2.405%
CC(C)N(C)C(=O)N(C)CC(=O)Nc1ccc(Br)cn1,-4.689%
CC(O)c1cnc2ccccc2c1 (centres undefined),-6.373%
NC(=O)c1cccc(CSc2nnnn2C2CC2)c1,9.56%
CC(C(=O)NC(C)(C)CO)N1CCSCC1 (centres undefined),6.757%
CC(C)N(CCC(N)=O)CC1CCOC1 (centres undefined),-6.991%
CN(C)c1cc(CN)c2ccccc2n1,88.55%
Cc1ccc(CN)c(OCC2CCOC2)c1 (centres undefined),-4.138%
NCCCNCCCN,-27.73%
COc1ccc(C(C)NC(CO)CO)c(Br)c1 (centres undefined),15.33%
CN(CC1CCOCC1)C(=O)NCc1ccco1,33.02%
Cc1ccc(C(=O)N2CCC(F)(F)C(CO)C2)cn1 (centres undefined),0.1122%

The last 4 entries again:

Result for NCCCNCCCN was -27.73%.
Result for COc1ccc(C(C)NC(CO)CO)c(Br)c1 (centres undefined) was 15.33%.
Result for CN(CC1CCOCC1)C(=O)NCc1ccco1 was 33.02%.
Result for Cc1ccc(C(=O)N2CCC(F)(F)C(CO)C2)cn1 (centres undefined) was 0.1122%.